Results taken from publication PMC9606361.
These are yes or no findings as the source states them, for the method shown.

Target: T1, EcNhaA WT-like triple mutant (A109T, Q277G, L296M) (Escherichia coli), P13738
T1 chain: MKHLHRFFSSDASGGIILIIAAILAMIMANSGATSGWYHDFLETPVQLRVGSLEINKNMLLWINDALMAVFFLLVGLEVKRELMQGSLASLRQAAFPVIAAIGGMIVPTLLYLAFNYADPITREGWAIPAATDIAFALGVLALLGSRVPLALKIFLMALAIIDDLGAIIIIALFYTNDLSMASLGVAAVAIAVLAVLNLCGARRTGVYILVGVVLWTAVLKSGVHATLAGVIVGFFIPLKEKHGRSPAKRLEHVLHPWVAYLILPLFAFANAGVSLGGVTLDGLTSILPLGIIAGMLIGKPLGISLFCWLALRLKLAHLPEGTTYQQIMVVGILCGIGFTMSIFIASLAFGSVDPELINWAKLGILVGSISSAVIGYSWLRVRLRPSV
Experiment: crystal structure; lipidic cubic phase (monoolein) crystals, 0.1 M MES pH 6.5, 0.1 M NaCl, 0.1 M CaCl2, 24-45% PEG 400, 20 °C; protein purified with cardiolipin; 2.2 Å; both purified
Settings: remark: other sources report otherwise

B1: EcNhaA WT-like triple mutant (A109T, Q277G, L296M), P13738 1-388 (protein)
chain: MKHLHRFFSSDASGGIILIIAAILAMIMANSGATSGWYHDFLETPVQLRVGSLEINKNMLLWINDALMAVFFLLVGLEVKRELMQGSLASLRQAAFPVIAAIGGMIVPTLLYLAFNYADPITREGWAIPAATDIAFALGVLALLGSRVPLALKIFLMALAIIDDLGAIIIIALFYTNDLSMASLGVAAVAIAVLAVLNLCGARRTGVYILVGVVLWTAVLKSGVHATLAGVIVGFFIPLKEKHGRSPAKRLEHVLHPWVAYLILPLFAFANAGVSLGGVTLDGLTSILPLGIIAGMLIGKPLGISLFCWLALRLKLAHLPEGTTYQQIMVVGILCGIGFTMSIFIASLAFGSVDPELINWAKLGILVGSISSAVIGYSWLRVRLRPSV
With B1 as the binder, how does the binding read?
The binding was “no binding”.
